# The other results are listed elsewhere or left out.
# B1: Thrombomodulin Lectin (Mus musculus) (protein)
# chain: LSALAKLQPTGSQCVEHECFALFQGPATFLDASQACQRLQGHLMTVRSSVAADVISLLLSQSSMDLGPWIGLQLPQGCDDPVHLGPLRGFQWVTGDNHTSYSRWARPNDQTAPLCGPLCVTVSTATEAAPGEPAWEEKPCETETQGFLCEFYFTASCRVDPIPVREDTKEEEGAGEPPVSPTPGSPTGPPSARPVLDEPRVPITQNPCPPLKECPPCAAPDLEGGPSVFIFPPKIKDVLMISLSPMVTCVVVDVSEDDPDVQISWFVNNVEVHTAQTQTHREDYNSTLRVVSALPIQHQDWMSGKAFACAVNNRALPSPIEKTISKPRGPVRAPQVYVLPPPAEEMTKKEFSLTCMITGFLPAEIAVDWTSNGRTEQNYKNTATVLDSDGSYFMYSKLRVQKSTWERGSLFACSVVHEGLHNHLTTKTISRSLGK
# Assays:
# Experiment in all cases: glycan array binding signal (z-score within array); higher = stronger binding
# Conditions in all cases: glycan notation: IUPAC condensed, linker removed
# [1] = target: Neu5Ac(a2-3)Gal(b1-4)GlcNAc(b1-2)[Neu5Ac(a2-3)Gal(b1-4)GlcNAc(b1-4)]Man(a1-3)[GlcNAc(b1-4)][Neu5Ac(a2-3)Gal(b1-4)GlcNAc(b1-2)[Neu5Ac(a2-3)Gal(b1-4)GlcNAc(b1-6)]Man(a1-6)]Man(b1-4)GlcNAc(b1-4)GlcNAc
# Procedure, shortened: (§1)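 The Consortium for Functional Glycomics database supplied 3228 glycan arrays, of which those lacking an available protein sequence were dropped. The binding signal, a within-array Z-score, was averaged across arrays of the same protein sequence and across linkers. Negative scores can be read as non-binding.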
# [2] = target: Neu5Ac(a2-3)Gal(b1-4)GlcNAc(b1-2)[Neu5Ac(a2-3)Gal(b1-4)GlcNAc(b1-4)]Man(a1-3)[GlcNAc(b1-4)][Neu5Ac(a2-3)Gal(b1-4)GlcNAc(b1-4)Man(a1-6)]Man(b1-4)GlcNAc(b1-4)GlcNAc
# Procedure, shortened: as §1
# [3] = target: Neu5Ac(a2-3)Gal(b1-4)GlcNAc(b1-2)[Neu5Ac(a2-3)Gal(b1-4)GlcNAc(b1-6)]Man(a1-6)[Neu5Ac(a2-3)Gal(b1-4)GlcNAc(b1-2)Man(a1-3)][GlcNAc(b1-4)]Man(b1-4)GlcNAc(b1-4)GlcNAc
# Procedure, shortened: as §1
# [4] = target: Neu5Ac(a2-3)Gal(b1-4)GlcNAc(b1-3)Gal
# Procedure, shortened: as §1
# [5] = target: Neu5Ac(a2-3)Gal(b1-4)GlcNAc(b1-3)Gal(b1-3)GlcNAc
# Procedure, shortened: as §1
# [6] = target: Neu5Ac(a2-3)Gal(b1-4)GlcNAc(b1-3)Gal(b1-4)GlcNAc
# Procedure, shortened: as §1
# [7] = target: Neu5Ac(a2-3)Gal(b1-4)GlcNAc(b1-3)Gal(b1-4)GlcNAc(b1-2)Man(a1-3)[Neu5Ac(a2-3)Gal(b1-4)GlcNAc(b1-3)Gal(b1-4)GlcNAc(b1-2)Man(a1-6)]Man(b1-4)GlcNAc(b1-4)GlcNAc
# Procedure, shortened: as §1
# [8] = target: Neu5Ac(a2-3)Gal(b1-4)GlcNAc(b1-3)Gal(b1-4)GlcNAc(b1-3)Gal(b1-4)GlcNAc
# Procedure, shortened: as §1
# [9] = target: Neu5Ac(a2-3)Gal(b1-4)GlcNAc(b1-3)Gal(b1-4)GlcNAc(b1-3)Gal(b1-4)GlcNAc(b1-2)Man(a1-3)[Neu5Ac(a2-3)Gal(b1-4)GlcNAc(b1-3)Gal(b1-4)GlcNAc(b1-3)Gal(b1-4)GlcNAc(b1-2)Man(a1-6)]GalNAc
# Procedure, shortened: as §1
# [10] = target: Neu5Ac(a2-3)Gal(b1-4)GlcNAc(b1-3)Gal(b1-4)GlcNAc(b1-3)GalNAc
# Procedure, shortened: as §1
# [11] = target: Neu5Ac(a2-3)Gal(b1-4)GlcNAc(b1-3)Gal(b1-4)GlcNAc(b1-3)[Neu5Ac(a2-3)Gal(b1-4)GlcNAc(b1-3)Gal(b1-4)GlcNAc(b1-6)]GalNAc
# Procedure, shortened: as §1
# [12] = target: Neu5Ac(a2-3)Gal(b1-4)GlcNAc(b1-3)Gal(b1-4)GlcNAc(b1-6)[Gal(b1-3)]GalNAc
# Procedure, shortened: as §1
# [13] = target: Neu5Ac(a2-3)Gal(b1-4)GlcNAc(b1-3)Gal(b1-4)[Fuc(a1-3)]GlcNAc
# Procedure, shortened: as §1
# [14] = target: Neu5Ac(a2-3)Gal(b1-4)GlcNAc(b1-3)GalNAc
# Procedure, shortened: as §1
# [15] = target: Neu5Ac(a2-3)Gal(b1-4)GlcNAc(b1-3)[Neu5Ac(a2-3)Gal(b1-4)GlcNAc(b1-6)]GalNAc
# Procedure, shortened: as §1
# [16] = target: Neu5Ac(a2-3)Gal(b1-4)GlcNAc(b1-6)GalNAc
# Procedure, shortened: as §1
# [17] = target: Neu5Ac(a2-3)Gal(b1-4)GlcNAc(b1-6)[Gal(b1-3)]GalNAc
# Procedure, shortened: as §1
# [18] = target: Neu5Ac(a2-3)Gal(b1-4)GlcNAc(b1-6)[Neu5Ac(a2-3)Gal(b1-3)]GalNAc
# Procedure, shortened: as §1
# [19] = target: Neu5Ac(a2-3)Gal(b1-4)GlcNAc6S
# Procedure, shortened: as §1
# [20] = target: Neu5Ac(a2-3)Gal(b1-4)[Fuc(a1-3)]GlcNAc
# Procedure, shortened: as §1
# [21] = target: Neu5Ac(a2-3)Gal(b1-4)[Fuc(a1-3)]GlcNAc(b1-2)Man
# Procedure, shortened: as §1
# [22] = target: Neu5Ac(a2-3)Gal(b1-4)[Fuc(a1-3)]GlcNAc(b1-3)Gal
# Procedure, shortened: as §1
# [23] = target: Neu5Ac(a2-3)Gal(b1-4)[Fuc(a1-3)]GlcNAc(b1-3)Gal(b1-4)GlcNAc
# Procedure, shortened: as §1
# [24] = target: Neu5Ac(a2-3)Gal(b1-4)[Fuc(a1-3)]GlcNAc(b1-3)Gal(b1-4)[Fuc(a1-3)]GlcNAc(b1-3)Gal(b1-4)[Fuc(a1-3)]GlcNAc
# Procedure, shortened: as §1
# [25] = target: Neu5Ac(a2-3)Gal(b1-4)[Fuc(a1-3)]GlcNAc(b1-3)GalNAc
# Procedure, shortened: as §1
# [26] = target: Neu5Ac(a2-3)Gal(b1-4)[Fuc(a1-3)]GlcNAc(b1-6)[Gal(b1-3)]GalNAc
# Procedure, shortened: as §1
# [27] = target: Neu5Ac(a2-3)Gal(b1-4)[Fuc(a1-3)]GlcNAc(b1-6)[Neu5Ac(a2-3)Gal(b1-3)]GalNAc
# Procedure, shortened: as §1
# [28] = target: Neu5Ac(a2-3)Gal(b1-4)[Fuc(a1-3)]GlcNAc6S
# Procedure, shortened: as §1
# [29] = target: Neu5Ac(a2-3)Gal6S(b1-4)GlcNAc
# Procedure, shortened: as §1
# [30] = target: Neu5Ac(a2-3)Gal6S(b1-4)[Fuc(a1-3)]GlcNAc
# Procedure, shortened: as §1
# Neu5Ac(a2-3)GalNAc = target: Neu5Ac(a2-3)GalNAc
# Procedure, shortened: as §1
# [31] = target: Neu5Ac(a2-3)GalNAc(b1-4)GlcNAc
# Procedure, shortened: as §1
# [32] = target: Neu5Ac(a2-3)[GalNAc(b1-4)]Gal(b1-4)Glc
# Procedure, shortened: as §1
# [33] = target: Neu5Ac(a2-3)[GalNAc(b1-4)]Gal(b1-4)GlcNAc
# Procedure, shortened: as §1
# [34] = target: Neu5Ac(a2-3)[GalNAc(b1-4)]Gal(b1-4)GlcNAc(b1-3)GalNAc
# Procedure, shortened: as §1
# [35] = target: Neu5Ac(a2-3)[Neu5Ac(a2-6)]GalNAc
# Procedure, shortened: as §1
# Neu5Ac(a2-6)Gal = target: Neu5Ac(a2-6)Gal
# Procedure, shortened: as §1
binder,measurement,setting,value
B1,glycan array binding signal (z-score),[1],1.05
same,glycan array binding signal (z-score),[2],-0.118
same,glycan array binding signal (z-score),[3],-1.34
same,glycan array binding signal (z-score),[4],-0.006
same,glycan array binding signal (z-score),[5],-0.763
same,glycan array binding signal (z-score),[6],0.675
same,glycan array binding signal (z-score),[7],-0.306
same,glycan array binding signal (z-score),[8],-0.325
same,glycan array binding signal (z-score),[9],0.803
same,glycan array binding signal (z-score),[10],1.05
same,glycan array binding signal (z-score),[11],0.399
same,glycan array binding signal (z-score),[12],1.24
same,glycan array binding signal (z-score),[13],0.786
same,glycan array binding signal (z-score),[14],-0.462
same,glycan array binding signal (z-score),[15],1.22
same,glycan array binding signal (z-score),[16],-0.63
same,glycan array binding signal (z-score),[17],-0.65
same,glycan array binding signal (z-score),[18],-0.743
same,glycan array binding signal (z-score),[19],-0.422
same,glycan array binding signal (z-score),[20],-1.84
same,glycan array binding signal (z-score),[21],1.18
same,glycan array binding signal (z-score),[22],-0.357
same,glycan array binding signal (z-score),[23],0.227
same,glycan array binding signal (z-score),[24],-0.936
same,glycan array binding signal (z-score),[25],1.67
same,glycan array binding signal (z-score),[26],-0.561
same,glycan array binding signal (z-score),[27],-0.316
same,glycan array binding signal (z-score),[28],-0.4
same,glycan array binding signal (z-score),[29],0.309
same,glycan array binding signal (z-score),[30],0.298
same,glycan array binding signal (z-score),Neu5Ac(a2-3)GalNAc,-0.082
same,glycan array binding signal (z-score),[31],-0.559
same,glycan array binding signal (z-score),[32],-0.568
same,glycan array binding signal (z-score),[33],-0.509
same,glycan array binding signal (z-score),[34],2.15
same,glycan array binding signal (z-score),[35],0.341
same,glycan array binding signal (z-score),Neu5Ac(a2-6)Gal,0.205

# Quoted at random: two records from the list
binder,measurement,setting,value
B1,glycan array binding signal (z-score),[4],-0.006
same,glycan array binding signal (z-score),[17],-0.65
